Strings that start with PEPTIDE1 are HELM notation: dots part the residues, brackets hold end groups and non-standard residues.
Assay: general procedure: Boc solid-phase peptide synthesis; benzhydrylamine HCl resin, about 0.55 meq NH2/g (Advanced ChemTech); diisopropylcarbodiimide/HOBt
Settings: whole synthesis, analytical HPLC, scale of the general procedure 0.5 g resin (about 0.27 mmol)
In the case of “PEPTIDE1{[Mel].C.Y.[dW].K.V.C.T.[am]}$PEPTIDE1,PEPTIDE1,2:R3-7:R3$$$V2.0”, the “final HPLC purity” value is reported as >95%. In the case of “PEPTIDE1{[Mel].F.C.F.[dW].K.T.C.T.[am]}$PEPTIDE1,PEPTIDE1,3:R3-8:R3$$$V2.0”, the “final HPLC purity” value is reported as >92%. With “PEPTIDE1{[Mel].[dF].C.F.[dW].K.T.C.T.[am]}$PEPTIDE1,PEPTIDE1,3:R3-8:R3$$$V2.0” the “final HPLC purity” value was >92%. For “PEPTIDE1{[Mel].[dF].C.Y.[dW].K.V.C.T.[am]}$PEPTIDE1,PEPTIDE1,3:R3-8:R3$$$V2.0”, the “final HPLC purity” value was >92%. For “PEPTIDE1{[Mel].[dF].C.Y.[dW].K.V.C.W.[am]}$PEPTIDE1,PEPTIDE1,3:R3-8:R3$$$V2.0”, the “final HPLC purity” value was >92%.

Source: patent publication EP0450480B1 (The Administrators of The Tulane Educational Fund, priority 1990, dated 1991)
